Reference: PubChem BioAssay AID1159601 (NIAID, 2016)
Here is one part, drawn at random, of 756 reagents tested. 143 of them (19%) count as active. 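Calls include both lowered and raised reporter signal; each row is a single siRNA, not a gene summary; Pam3CSK4 dose not stated.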 Unmarked entries are inactive. The numbers tell different reagents against one gene apart. Reagent sequences are not shown. Not stated in the record: the amount of reagent.

- Test: 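Genes whose loss changes TNF reporter induction by lipopeptide in human macrophage-like cells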 (primary screen)
- System: human THP-1 reporter cells differentiated with PMA into macrophage-like cells
- Reagent: single siRNA against human genes
- Time to read-out: ligand added 4 hours before read-out; cells assayed 48 to 72 hours after siRNA transfection
- Conditions: Pam3CSK4 (TLR2 ligand) for 4 hours; dose not given
- Read-out: 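TNF promoter dual-luciferase ratio measured 4 h after Pam3CSK4, converted to robust z-scores against negative controls and averaged across replicates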
- Direction: TNF reporter z-score: higher = stronger TNF promoter reporter activity
- Call rule: 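Grade increases with absolute z-score, cut points 1, 1.5, 2 and 2.5, both signs; rows called active have z near or beyond ±1.5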
- Meaning of the calls: active = clear change (up or down); inactive = little change

target gene | reagent no. | TNF reporter z-score, replicate mean
CD14 (CD14 molecule) | 1 | 0.432
CD14 (CD14 molecule) | 2 | 0.00714
CD14 (CD14 molecule) | 3 | 1.75 (active)
CD14 (CD14 molecule) | 4 | -0.361
CD14 (CD14 molecule) | 5 | 0.257
CD14 (CD14 molecule) | 6 | 0.272
TAB3 (TGF-beta activated kinase 1 (MAP3K7) binding protein 3) | 1 | -0.312
TAB3 (TGF-beta activated kinase 1 (MAP3K7) binding protein 3) | 2 | -0.404
TAB3 (TGF-beta activated kinase 1 (MAP3K7) binding protein 3) | 3 | -0.281
TAB3 (TGF-beta activated kinase 1 (MAP3K7) binding protein 3) | 4 | -0.0874
TAB3 (TGF-beta activated kinase 1 (MAP3K7) binding protein 3) | 5 | 1.46
TAB3 (TGF-beta activated kinase 1 (MAP3K7) binding protein 3) | 6 | -0.534
TNF (tumor necrosis factor) | 1 | -0.0444
TNF (tumor necrosis factor) | 2 | -1.34
TNF (tumor necrosis factor) | 3 | -0.998
TNF (tumor necrosis factor) | 4 | -0.515
TNF (tumor necrosis factor) | 5 | -1.85 (active)
TNF (tumor necrosis factor) | 6 | -3.32 (active)
JUN (Jun proto-oncogene, AP-1 transcription factor subunit) | 1 | -0.906
JUN (Jun proto-oncogene, AP-1 transcription factor subunit) | 2 | -3.07 (active)
JUN (Jun proto-oncogene, AP-1 transcription factor subunit) | 3 | -0.663
JUN (Jun proto-oncogene, AP-1 transcription factor subunit) | 4 | -0.495
JUN (Jun proto-oncogene, AP-1 transcription factor subunit) | 5 | -1.79 (active)
JUN (Jun proto-oncogene, AP-1 transcription factor subunit) | 6 | 0.294
ELK4 (ETS transcription factor ELK4) | 1 | -0.588
ELK4 (ETS transcription factor ELK4) | 2 | -1
ELK4 (ETS transcription factor ELK4) | 3 | -0.89
ELK4 (ETS transcription factor ELK4) | 4 | -1.36
ELK4 (ETS transcription factor ELK4) | 5 | -0.706
ELK4 (ETS transcription factor ELK4) | 6 | -0.0703
IKBKG | 1 | -2.37 (active)
IKBKG | 2 | -0.994
IKBKG | 3 | -0.811
IKBKG | 4 | -1.52 (active)
IKBKG | 5 | 1.83 (active)
IKBKG | 6 | -0.136
DUSP1 (dual specificity phosphatase 1) | 1 | -0.498
DUSP1 (dual specificity phosphatase 1) | 2 | 1.23
DUSP1 (dual specificity phosphatase 1) | 3 | -0.244
DUSP1 (dual specificity phosphatase 1) | 4 | 1.19
DUSP1 (dual specificity phosphatase 1) | 5 | -1.05
DUSP1 (dual specificity phosphatase 1) | 6 | 0.441
AKT3 (AKT serine/threonine kinase 3) | 1 | 0.238
AKT3 (AKT serine/threonine kinase 3) | 2 | 0.249
AKT3 (AKT serine/threonine kinase 3) | 3 | 2.34 (active)
AKT3 (AKT serine/threonine kinase 3) | 4 | -1.47
AKT3 (AKT serine/threonine kinase 3) | 5 | -0.958
AKT3 (AKT serine/threonine kinase 3) | 6 | 0.0238
ELK1 (ETS transcription factor ELK1) | 1 | -1.63 (active)
ELK1 (ETS transcription factor ELK1) | 2 | -2.68 (active)
ELK1 (ETS transcription factor ELK1) | 3 | -2.01 (active)
ELK1 (ETS transcription factor ELK1) | 4 | -0.98
ELK1 (ETS transcription factor ELK1) | 5 | -0.644
ELK1 (ETS transcription factor ELK1) | 6 | 0.203
TLR7 (toll like receptor 7) | 1 | 0.0849
TLR7 (toll like receptor 7) | 2 | 0.0139
TLR7 (toll like receptor 7) | 3 | -0.515
TLR7 (toll like receptor 7) | 4 | -0.422
TLR7 (toll like receptor 7) | 5 | 0.124
TLR7 (toll like receptor 7) | 6 | -0.0411
TICAM1 (TIR domain containing adaptor molecule 1) | 1 | -0.479
TICAM1 (TIR domain containing adaptor molecule 1) | 2 | 0.71
TICAM1 (TIR domain containing adaptor molecule 1) | 3 | -0.166
TICAM1 (TIR domain containing adaptor molecule 1) | 4 | -2.9 (active)
TICAM1 (TIR domain containing adaptor molecule 1) | 5 | -1.19
TICAM1 (TIR domain containing adaptor molecule 1) | 6 | -0.597
EGR1 (early growth response 1) | 1 | -2.72 (active)
EGR1 (early growth response 1) | 2 | -2.35 (active)
EGR1 (early growth response 1) | 3 | -2.18 (active)
EGR1 (early growth response 1) | 4 | -1.23
EGR1 (early growth response 1) | 5 | -0.505
EGR1 (early growth response 1) | 6 | 0.719
TOLLIP (toll interacting protein) | 1 | -1.4
TOLLIP (toll interacting protein) | 2 | -0.473
TOLLIP (toll interacting protein) | 3 | 0.126
TOLLIP (toll interacting protein) | 4 | -1.06
TOLLIP (toll interacting protein) | 5 | -1.19
TOLLIP (toll interacting protein) | 6 | -0.445
CREBBP (CREB binding lysine acetyltransferase) | 1 | 0.29
CREBBP (CREB binding lysine acetyltransferase) | 2 | 0.877
CREBBP (CREB binding lysine acetyltransferase) | 3 | 1.29
CREBBP (CREB binding lysine acetyltransferase) | 4 | 0.761
CREBBP (CREB binding lysine acetyltransferase) | 5 | 0.385
CREBBP (CREB binding lysine acetyltransferase) | 6 | -0.221
NFKBIE (NFKB inhibitor epsilon) | 1 | -0.72
NFKBIE (NFKB inhibitor epsilon) | 2 | -1.3
NFKBIE (NFKB inhibitor epsilon) | 3 | -1.25
NFKBIE (NFKB inhibitor epsilon) | 4 | -1.21
NFKBIE (NFKB inhibitor epsilon) | 5 | -1.55 (active)
NFKBIE (NFKB inhibitor epsilon) | 6 | -2.06 (active)
AKT2 (AKT serine/threonine kinase 2) | 1 | -0.361
AKT2 (AKT serine/threonine kinase 2) | 2 | -0.557
AKT2 (AKT serine/threonine kinase 2) | 3 | 1.28
AKT2 (AKT serine/threonine kinase 2) | 4 | -0.176
AKT2 (AKT serine/threonine kinase 2) | 5 | 0.648
AKT2 (AKT serine/threonine kinase 2) | 6 | 1.8 (active)
LY96 (lymphocyte antigen 96) | 1 | -0.764
LY96 (lymphocyte antigen 96) | 2 | -0.186
LY96 (lymphocyte antigen 96) | 3 | 1.99 (active)
LY96 (lymphocyte antigen 96) | 4 | -0.58
LY96 (lymphocyte antigen 96) | 5 | 0.713
LY96 (lymphocyte antigen 96) | 6 | 0.507
TLR1 (toll like receptor 1) | 1 | 1.95 (active)
TLR1 (toll like receptor 1) | 2 | -1.09
TLR1 (toll like receptor 1) | 3 | -1.75 (active)
TLR1 (toll like receptor 1) | 4 | 1.07
TLR1 (toll like receptor 1) | 5 | -0.999
TLR1 (toll like receptor 1) | 6 | -0.201
FADD (Fas associated via death domain) | 1 | -0.287
FADD (Fas associated via death domain) | 2 | -0.536
FADD (Fas associated via death domain) | 3 | 0.191
FADD (Fas associated via death domain) | 4 | -1.09
FADD (Fas associated via death domain) | 5 | 0.0767
FADD (Fas associated via death domain) | 6 | -2.17 (active)

Records above whose gene name begins with D or d:
target gene | reagent no. | TNF reporter z-score, replicate mean
DUSP1 (dual specificity phosphatase 1) | 1 | -0.498
DUSP1 (dual specificity phosphatase 1) | 2 | 1.23
DUSP1 (dual specificity phosphatase 1) | 3 | -0.244
DUSP1 (dual specificity phosphatase 1) | 4 | 1.19
DUSP1 (dual specificity phosphatase 1) | 5 | -1.05
DUSP1 (dual specificity phosphatase 1) | 6 | 0.441
